In paper doi:10.1101/2025.04.22.650084:
Results are given in words; binding and its absence hold for the method and conditions named. Some results given as binding are weak or reduced against the parent protein; the word gives no strength. Where a sequence is shown, tags or fusion partners need not be part of it.

Assays:
Experiment in all cases: two-hybrid
[1] = biological target: T1, U1-70k (full-length, yeast two-hybrid fusion) (Arabidopsis thaliana) (UniProt Q42404)
T1 sequence: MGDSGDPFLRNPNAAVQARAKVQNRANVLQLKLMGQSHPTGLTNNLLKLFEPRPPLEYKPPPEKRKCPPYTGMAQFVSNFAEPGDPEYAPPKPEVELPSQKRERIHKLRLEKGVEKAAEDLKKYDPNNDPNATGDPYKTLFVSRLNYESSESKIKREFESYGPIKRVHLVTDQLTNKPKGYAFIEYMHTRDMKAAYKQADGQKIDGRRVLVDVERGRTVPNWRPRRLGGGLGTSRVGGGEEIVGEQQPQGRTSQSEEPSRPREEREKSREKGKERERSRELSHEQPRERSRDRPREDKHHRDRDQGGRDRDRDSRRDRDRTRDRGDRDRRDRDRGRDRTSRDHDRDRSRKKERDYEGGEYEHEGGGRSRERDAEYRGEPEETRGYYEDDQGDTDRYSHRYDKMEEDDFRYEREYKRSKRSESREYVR

[2] = biological target: T2, U1-70k (235-427aa) (yeast two-hybrid fusion) (Arabidopsis thaliana) (UniProt Q42404)
T2 sequence: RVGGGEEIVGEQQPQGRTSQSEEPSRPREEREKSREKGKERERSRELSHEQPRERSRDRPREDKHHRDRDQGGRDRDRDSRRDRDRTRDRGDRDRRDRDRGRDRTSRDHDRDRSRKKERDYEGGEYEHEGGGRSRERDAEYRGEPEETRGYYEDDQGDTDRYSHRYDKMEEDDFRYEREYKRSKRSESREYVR

[3] = biological target: T3, U1-70k 1∼393aa (LC2-deleted U1-70k, yeast two-hybrid fusion) (Arabidopsis thaliana) (UniProt Q42404)
T3 sequence: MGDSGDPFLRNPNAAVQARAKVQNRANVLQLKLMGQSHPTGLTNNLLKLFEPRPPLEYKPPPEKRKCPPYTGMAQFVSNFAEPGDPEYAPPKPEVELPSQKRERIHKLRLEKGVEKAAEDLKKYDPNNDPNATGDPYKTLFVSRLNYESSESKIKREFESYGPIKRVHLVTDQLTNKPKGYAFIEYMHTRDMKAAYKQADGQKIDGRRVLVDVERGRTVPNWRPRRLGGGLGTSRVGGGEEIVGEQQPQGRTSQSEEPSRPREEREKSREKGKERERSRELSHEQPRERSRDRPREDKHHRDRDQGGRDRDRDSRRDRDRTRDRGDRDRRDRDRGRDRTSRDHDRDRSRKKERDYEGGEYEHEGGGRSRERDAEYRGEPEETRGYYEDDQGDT

[4] = biological target: T4, U1-70k (49∼427aa) (N-IDR-deleted U1-70k, yeast two-hybrid fusion) (Arabidopsis thaliana) (UniProt Q42404)
T4 sequence: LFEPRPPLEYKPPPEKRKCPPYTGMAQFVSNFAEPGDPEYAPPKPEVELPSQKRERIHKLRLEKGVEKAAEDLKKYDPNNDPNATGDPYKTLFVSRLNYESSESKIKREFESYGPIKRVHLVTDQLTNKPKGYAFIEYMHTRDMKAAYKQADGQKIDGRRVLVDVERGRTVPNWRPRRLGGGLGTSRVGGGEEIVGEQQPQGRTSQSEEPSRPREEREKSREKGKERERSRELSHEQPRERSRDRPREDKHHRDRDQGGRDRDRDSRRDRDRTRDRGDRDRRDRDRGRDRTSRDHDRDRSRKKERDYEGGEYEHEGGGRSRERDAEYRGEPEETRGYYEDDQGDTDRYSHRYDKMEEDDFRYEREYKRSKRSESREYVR

B1: SGS3 (suppressor of gene silencing 3, yeast two-hybrid fusion) (protein, UniProt Q9LDX1 1-625)
chain: MSSRAGPMSKEKNVQGGYRPEVEQLVQGLAGTRLASSQDDGGEWEVISKKNKNKPGNTSGKTWVSQNSNPPRAWGGQQQGRGSNVSGRGNNVSGRGNGNGRGIQANISGRGRALSRKYDNNFVAPPPVSRPPLEGGWNWQARGGSAQHTAVQEFPDVEDDVDNASEEENDSDALDDSDDDLASDDYDSDVSQKSHGSRKQNKWFKKFFGSLDSLSIEQINEPQRQWHCPACQNGPGAIDWYNLHPLLAHARTKGARRVKLHRELAEVLEKDLQMRGASVIPCGEIYGQWKGLGEDEKDYEIVWPPMVIIMNTRLDKDDNDKWLGMGNQELLEYFDKYEALRARHSYGPQGHRGMSVLMFESSATGYLEAERLHRELAEMGLDRIAWGQKRSMFSGGVRQLYGFLATKQDLDIFNQHSQGKTRLKFELKSYQEMVVKELRQISEDNQQLNYFKNKLSKQNKHAKVLEESLEIMSEKLRRTAEDNRIVRQRTKMQHEQNREEMDAHDRFFMDSIKQIHERRDAKEENFEMLQQQERAKVVGQQQQNINPSSNDDCRKRAEEVSSFIEFQEKEMEEFVEEREMLIKDQEKKMEDMKKRHHEEIFDLEKEFDEALEQLMYKHGLHNEDD
Question: What does the source list for B1?
Answer: binding [1]: binds; binding [2]: no binding; binding [3]: no binding; binding [4]: binds
